Data published in patent publication US5574055A, “Oxazolidinone derivatives” (Hoffmann-La Roche Inc., priority 1993, dated 1996).
At least one structure is not confirmed: it was looked up by name or label, or the drawing left a doubt.

Molecular target: monoamine oxidase (MAO)
Assay: MAO inhibition in vitro (brain)
Format: biochemical
Settings: rat brain homogenate, 14C-5-HT or 14C-PEA as substrate (which one not given), pH 7.4, 37° C., 30 min pre-incubation, 10 min incubation
Experimental: The MAO inhibiting activity of the compounds in accordance with the invention can be determined using standard methods.
The preparations to be tested were investigated in the in vitro test described hereinafter, which was based on the method of R. J. Wurtmann and J. A. Axelrod [Biochem. Pharmac. 12, 1439-41 (1963).
Isolated rat brains are homogenized in 0.1 molar potassium phosphate buffer (pH 7.4) in the ratio 1:9 (weight/volume), whereupon the homogenate is diluted with the same buffer in the ratio 1:4 (volume/volume) and stored at -20° C. A mixture of the following composition is used for the incubation:
100 μl of 1M phosphate buffer (pH 7.4);
100 μl of solubilizate of the substance to be tested in water or in aqueous dimethyl sulfoxide;
50 μl of rat brain homogenate; and as the substrate
50 μl of ^14 C-labelled serotonin (5-HT) or ^14 C-phenylethylamine (PEA), in each instance 100,000 decay per minute, corresponding to a final concentration of 2·10^-4 mol/l and, respectively, 2·10^-5 mol/l. […]
The activity of the MAO in comparison to the control homogenates is determined on the basis of the β-counter values.
Under the above test conditions the activity is linear with respect to time and to the concentration of the homogenizate. The IC50 values were determined graphically as a log of the concentration-activity curve. […]

COCC1CN(c2ccc(C3CCC(=NO)CC3)cc2)C(=O)O1 (racemic) [Example 9, (RS)-3-[4-(4-Hydroxy-imino-cyclohexyl)-phenyl]-5-methoxymethyl-oxazolidin-2-one]
IC50: 6 nM
